# Cleaved PARP in drug-treated melanoma cells

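Human melanoma cell lines in 1,536-well plates were treated with two drugs together for 72 h, then fixed, stained and imaged. The read-out is the fraction of cleaved-PARP-positive nuclei, in % of that fraction in the DMSO control; 200 means twice the control level of this apoptosis marker. Every drug was used at one fixed concentration, the higher of two screened. No replicate spread is given; individual values may be noisy. The marker varies much from line to line, for technical or biological reasons.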
This is part of the screen, not chosen by result.
An entry leaves out what has no value listed here.
A dash means that no value is listed here.

First drug in all entries: GW2580, 5000 nM, COc1ccc(COc2ccc(Cc3cnc(N)nc3N)cc2OC)cc1

Drug key:
erlotinib: C#Cc1cccc(Nc2ncnc3cc(OCCOC)c(OCCOC)cc23)c1 at 4000 nM
embelin: CCCCCCCCCCCC1=C(O)C(=O)C=C(O)C1=O at 6000 nM
midostaurin: CO[C@@H]1[C@H](N(C)C(=O)c2ccccc2)C[C@H]2O[C@]1(C)n1c3ccccc3c3c4c(c5c6ccccc6n2c5c31)C(=O)NC4 at 400 nM
GSK650394: O=C(O)c1ccc(-c2c[nH]c3ncc(-c4ccccc4)cc23)cc1C1CCCC1 at 800 nM
TCS401: O=C(O)C(=O)Nc1sc2c(c1C(=O)O)CCNC2 at 8330 nM
dasatinib: Cc1nc(Nc2ncc(C(=O)Nc3c(C)cccc3Cl)s2)cc(N2CCN(CCO)CC2)n1 at 20 nM
VX-702: NC(=O)c1ccc(N(C(N)=O)c2c(F)cccc2F)nc1-c1ccc(F)cc1F at 2000 nM
PLX4720: CCCS(=O)(=O)Nc1ccc(F)c(C(=O)c2c[nH]c3ncc(Cl)cc23)c1F at 400 nM
nilotinib: Cc1cn(-c2cc(NC(=O)c3ccc(C)c(Nc4nccc(-c5cccnc5)n4)c3)cc(C(F)(F)F)c2)cn1 at 1000 nM
lapatinib: CS(=O)(=O)CCNCc1ccc(-c2ccc3ncnc(Nc4ccc(OCc5cccc(F)c5)c(Cl)c4)c3c2)o1 at 4000 nM
dorsomorphin: c1cc(-c2cnn3cc(-c4ccc(OCCN5CCCCC5)cc4)cnc23)ccn1 at 2000 nM
U73122: COc1ccc2c(c1)CCC1C2CCC2(C)C(NCCCCCCN3C(=O)C=CC3=O)CCC12 (stereo not given) at 2000 nM
BI-78D3: O=c1[nH]nc(Sc2ncc([N+](=O)[O-])s2)n1-c1ccc2c(c1)OCCO2 at 1000 nM
FK866: O=C(/C=C/c1cccnc1)NCCCCC1CCN(C(=O)c2ccccc2)CC1 at 50 nM
lestaurtinib: C[C@]12O[C@H](C[C@]1(O)CO)n1c3ccccc3c3c4c(c5c6ccccc6n2c5c31)CNC4=O at 20 nM
etoposide: COc1cc([C@@H]2c3cc4c(cc3[C@@H](O[C@@H]3O[C@@H]5CO[C@@H](C)O[C@H]5[C@H](O)[C@H]3O)[C@H]3COC(=O)[C@H]23)OCO4)cc(OC)c1O at 100 nM
AZD7762: NC(=O)Nc1cc(-c2cccc(F)c2)sc1C(=O)N[C@H]1CCCNC1 at 100 nM
bortezomib: CC(C)C[C@H](NC(=O)[C@H](Cc1ccccc1)NC(=O)c1cnccn1)B(O)O at 5 nM
GW9662: O=C(Nc1ccccc1)c1cc([N+](=O)[O-])ccc1Cl at 10000 nM
GW441756: Cn1cc(/C=C2\C(=O)Nc3cccnc32)c2ccccc21 at 2000 nM
LFM-A13: C/C(O)=C(\C#N)C(=O)Nc1cc(Br)ccc1Br at 10000 nM
tozasertib: Cc1cc(Nc2cc(N3CCN(C)CC3)nc(Sc3ccc(NC(=O)C4CC4)cc3)n2)n[nH]1 at 30 nM
decitabine: Nc1ncn([C@H]2C[C@H](O)[C@@H](CO)O2)c(=O)n1 at 500 nM
darinaparsin: C[As](C)SC[C@H](NC(=O)CC[C@H](N)C(=O)O)C(=O)NCC(=O)O at 2000 nM

Partner,SK-MEL-2,LOX IMVI,COLO 829,WM451Lu,WM1745,C32,LB2518-MEL,RPMI-7951,G-361,SK-MEL-28,501mel,IST-MEL1,SK-MEL-5,A2058
bortezomib,96.2,205,2320,2530,-,216,1200,798,10600,259,553,258,350,1700
U73122,74.0,36.9,141,92.7,153,122,58.5,176,28.7,93.7,62.8,56.4,81.7,108
etoposide,214,20.7,-,228,-,94.9,72.2,44.0,-,52.6,56.6,43.0,143,148
GW9662,84.8,68.0,71.2,217,134,80.0,80.0,137,291,131,173,57.5,135,171
embelin,60.5,100,129,92.4,217,83.1,116,98.3,41.0,79.3,109,52.7,162,84.6
AZD7762,184,140,42.0,480,162,141,238,207,148,301,367,79.2,143,433
BI-78D3,55.9,54.1,112,24.8,-,92.9,200,89.3,97.5,81.0,79.2,109,128,77.3
lestaurtinib,124,73.1,64.5,175,-,142,79.6,42.1,211,99.6,110,133,188,96.8
dorsomorphin,74.2,102,50.4,120,289,263,138,105,288,112,439,67.0,237,293
lapatinib,59.5,71.9,114,233,-,86.6,263,273,285,208,525,110,267,37.4
nilotinib,92.4,65.5,57.1,134,-,79.9,118,175,81.4,46.2,275,48.6,190,68.3
PLX4720,101,192,111,665,-,187,69.3,36.6,412,128,87.5,95.9,216,101
erlotinib,130,55.8,104,59.3,166,112,138,97.6,62.9,70.7,278,127,188,280
midostaurin,171,119,218,181,251,96.2,99.0,147,329,194,140,138,162,249
dasatinib,31.3,440,159,82.8,304,321,55.6,155,37.6,128,149,823,121,245
LFM-A13,27.5,99.1,73.2,104,96.8,76.0,49.1,93.7,84.3,106,74.3,330,374,53.1
tozasertib,79.8,195,25.9,188,-,97.9,65.7,74.6,126,176,47.6,136,177,238
decitabine,-,83.7,156,180,-,183,-,75.3,132,224,-,60.6,152,234
TCS401,31.9,80.2,35.6,151,132,99.1,67.3,125,147,116,186,123,127,159
VX-702,49.3,199,108,110,-,70.7,38.7,90.8,62.6,177,70.4,58.1,124,120
GW441756,17.5,81.7,59.8,84.4,127,98.5,54.9,76.9,52.5,40.9,46.4,81.3,211,101
darinaparsin,119,135,37.0,59.9,107,103,65.9,37.5,153,131,72.3,61.9,142,84.9
FK866,2550,37.1,339,82.9,-,185,527,128,8800,230,27.1,185,183,88.1
GSK650394,68.1,113,47.0,61.5,104,95.1,61.8,71.4,66.6,146,62.7,59.2,166,224

Repeated from the top, 2 entries:

{"partner": "bortezomib", "SK-MEL-2": 96.2, "LOX IMVI": 205, "COLO 829": 2320, "WM451Lu": 2530, "C32": 216, "LB2518-MEL": 1200, "RPMI-7951": 798, "G-361": 10600, "SK-MEL-28": 259, "501mel": 553, "IST-MEL1": 258, "SK-MEL-5": 350, "A2058": 1700}
{"partner": "U73122", "SK-MEL-2": 74.0, "LOX IMVI": 36.9, "COLO 829": 141, "WM451Lu": 92.7, "WM1745": 153, "C32": 122, "LB2518-MEL": 58.5, "RPMI-7951": 176, "G-361": 28.7, "SK-MEL-28": 93.7, "501mel": 62.8, "IST-MEL1": 56.4, "SK-MEL-5": 81.7, "A2058": 108}

From a melanoma drug combination screen (doi:10.1371/journal.pone.0140310); values rounded.